This passage reports binding results from US20050123923A1.

The chains behind the UniProt entries cited, without tags or fusion partners. Where a name states a change or a piece, a line headed by the entry shows the natural chain unless it says otherwise. Residues count along the entry.
UniProt P0DQD5: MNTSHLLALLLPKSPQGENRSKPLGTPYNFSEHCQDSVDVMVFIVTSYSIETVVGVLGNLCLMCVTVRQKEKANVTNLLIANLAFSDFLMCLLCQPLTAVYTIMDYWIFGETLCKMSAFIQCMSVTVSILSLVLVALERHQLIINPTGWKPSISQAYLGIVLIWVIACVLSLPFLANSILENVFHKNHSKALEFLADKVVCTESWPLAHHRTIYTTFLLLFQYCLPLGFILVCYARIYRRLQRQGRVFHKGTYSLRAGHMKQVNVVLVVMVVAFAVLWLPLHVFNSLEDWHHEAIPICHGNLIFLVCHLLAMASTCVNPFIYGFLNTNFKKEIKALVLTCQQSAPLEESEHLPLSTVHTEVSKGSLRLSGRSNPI
UniProt P01298, residues 30-65: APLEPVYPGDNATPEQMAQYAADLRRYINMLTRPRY

In the experiment the target is human PPY1 receptor mutant 826 (codon 276, Val->Met) (Construct 3) (human) (UniProt P0DQD5). The experiment in a line: radioligand competition (summary of the examples). In general terms: Displacement assays read how much labelled ligand stays bound in the presence of the test substance.

Results are given in words; binding and its absence hold for the method and conditions named. Some entries that bind do so weakly or less than the wild type.

As to “human pancreatic polypeptide (hPP) (from UniProt P01298 30-65)”, the binding result was “binds”.
